PubChem BioAssay AID1259308, NCATS | 2017
In all, the deposit lists about 59,000 reagents; below is an unselected part. Over the whole deposit, about 1,510 (2.6%) were called active. 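Calls use total luciferase alone and ignore viability, so some active siRNAs may act by altering cell number.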 The numbers tell different reagents against one gene apart. Further read-outs or replicates are left out here.

- Aim: 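Knock-downs that increase output of a recombinant reporter protein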 (primary screen)
- System: human HEK293 embryonic kidney cells stably expressing firefly luciferase (HEK-CMV-Luc2-Hygro)
- Reagents: single siRNA against human genes, 0.8 pmol siRNA per well
- Timing: 72 h
- Measurement: 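Reporter luminescence and viable-cell signal on separate replicate plates, given as percent of non-targeting control and median/MAD z-scores, plus per-cell luciferase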
- Direction: total luciferase, z-score and total luciferase, % of control: higher = more reporter protein produced
- Hit rule: 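An siRNA counts as active if its total luciferase robust z-score exceeds 3; genes with two or more such siRNAs out of three were retested with fresh siRNAs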
- Meaning of the calls: active = raised luciferase; inactive = no rise

{"target gene":"PARK7","siRNA no.":1,"total luciferase, z-score":0.0177,"total luciferase, % of control":82.2,"call":"inactive"}
{"target gene":"PARK7","siRNA no.":2,"total luciferase, z-score":0.159,"total luciferase, % of control":85.1,"call":"inactive"}
{"target gene":"PARK7","siRNA no.":3,"total luciferase, z-score":-0.0449,"total luciferase, % of control":81,"call":"inactive"}
{"target gene":"OR14C36","siRNA no.":1,"total luciferase, z-score":-0.385,"total luciferase, % of control":74.2,"call":"inactive"}
{"target gene":"OR14C36","siRNA no.":2,"total luciferase, z-score":0.538,"total luciferase, % of control":92.6,"call":"inactive"}
{"target gene":"OR14C36","siRNA no.":3,"total luciferase, z-score":4.24,"total luciferase, % of control":166,"call":"active"}
{"target gene":"UNC5D","siRNA no.":1,"total luciferase, z-score":-0.878,"total luciferase, % of control":64.4,"call":"inactive"}
{"target gene":"UNC5D","siRNA no.":2,"total luciferase, z-score":-0.343,"total luciferase, % of control":75.1,"call":"inactive"}
{"target gene":"UNC5D","siRNA no.":3,"total luciferase, z-score":0.311,"total luciferase, % of control":88.1,"call":"inactive"}
{"target gene":"CRYAA","siRNA no.":1,"total luciferase, z-score":-1.44,"total luciferase, % of control":53.2,"call":"inactive"}
{"target gene":"CRYAA","siRNA no.":2,"total luciferase, z-score":-0.571,"total luciferase, % of control":70.5,"call":"inactive"}
{"target gene":"CRYAA","siRNA no.":3,"total luciferase, z-score":0.0362,"total luciferase, % of control":82.6,"call":"inactive"}
{"target gene":"NT5M","siRNA no.":1,"total luciferase, z-score":0.474,"total luciferase, % of control":91.3,"call":"inactive"}
{"target gene":"NT5M","siRNA no.":2,"total luciferase, z-score":1.53,"total luciferase, % of control":112,"call":"inactive"}
{"target gene":"NT5M","siRNA no.":3,"total luciferase, z-score":1.17,"total luciferase, % of control":105,"call":"inactive"}
{"target gene":"ST3GAL3","siRNA no.":1,"total luciferase, z-score":-1.24,"total luciferase, % of control":57.2,"call":"inactive"}
{"target gene":"ST3GAL3","siRNA no.":2,"total luciferase, z-score":2.55,"total luciferase, % of control":133,"call":"inactive"}
{"target gene":"ST3GAL3","siRNA no.":3,"total luciferase, z-score":-0.599,"total luciferase, % of control":70,"call":"inactive"}
{"target gene":"ZNF488","siRNA no.":1,"total luciferase, z-score":-0.434,"total luciferase, % of control":73.3,"call":"inactive"}
{"target gene":"ZNF488","siRNA no.":2,"total luciferase, z-score":3.78,"total luciferase, % of control":157,"call":"active"}
{"target gene":"ZNF488","siRNA no.":3,"total luciferase, z-score":0.457,"total luciferase, % of control":91,"call":"inactive"}
{"target gene":"SHF","siRNA no.":1,"total luciferase, z-score":-1.03,"total luciferase, % of control":61.4,"call":"inactive"}
{"target gene":"SHF","siRNA no.":2,"total luciferase, z-score":0.66,"total luciferase, % of control":95,"call":"inactive"}
{"target gene":"SHF","siRNA no.":3,"total luciferase, z-score":-0.743,"total luciferase, % of control":67.1,"call":"inactive"}
{"target gene":"EPO","siRNA no.":1,"total luciferase, z-score":-0.519,"total luciferase, % of control":71.6,"call":"inactive"}
{"target gene":"EPO","siRNA no.":2,"total luciferase, z-score":-0.515,"total luciferase, % of control":71.6,"call":"inactive"}
{"target gene":"EPO","siRNA no.":3,"total luciferase, z-score":0.803,"total luciferase, % of control":97.9,"call":"inactive"}
{"target gene":"OR4F6","siRNA no.":1,"total luciferase, z-score":0.781,"total luciferase, % of control":97.4,"call":"inactive"}
{"target gene":"OR4F6","siRNA no.":2,"total luciferase, z-score":-1.51,"total luciferase, % of control":51.8,"call":"inactive"}
{"target gene":"OR4F6","siRNA no.":3,"total luciferase, z-score":-1.54,"total luciferase, % of control":51.3,"call":"inactive"}
{"target gene":"RGS19","siRNA no.":1,"total luciferase, z-score":-0.783,"total luciferase, % of control":66.3,"call":"inactive"}
{"target gene":"RGS19","siRNA no.":2,"total luciferase, z-score":0.667,"total luciferase, % of control":95.2,"call":"inactive"}
{"target gene":"RGS19","siRNA no.":3,"total luciferase, z-score":0.232,"total luciferase, % of control":86.5,"call":"inactive"}
